# Measurements: the supplement of paper PMC8728848
# Some of the results follow.
# B1: SJCP3842 (Schistosoma japonicum) (protein)
# chain: MFKMRIINLVNISTVLLLINLLQTKSRLVGKENGFMLTVSIYGAQLSDKMTSVPVSWTIDYEDPEKSAFKKLVTDSCDTFSEYVKSQIPKGSVDGQCTSHIFQRPGSGSGVSISLTLSFIYVDVTQPDTVALKTELEKHFANFVTIHSHKITQAQFRINQKAIVIPTGDKDAIDGSKWKIIAIIALVALAIVVIGGFIYICVK
# Legend:
# Assay in all cases: glycan array binding signal (z-score within array); higher = stronger binding
# Details in all cases: glycan notation: IUPAC condensed, linker removed
# Gal(b1-2)Gal = molecular target: Gal(b1-2)Gal
# How it was run: (§1)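 Glycan array data came from 3228 arrays in the Consortium for Functional Glycomics database, and only arrays with an available protein sequence were kept. Glycan names were put into IUPAC-condensed notation, and columns mapping to the same glycan were averaged. The binding signal is a within-array Z-score, averaged across arrays of one protein sequence run at different concentrations or buffers and across linkers. A negative Z-score can be read as non-binding.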
# Gal(b1-3)Gal = molecular target: Gal(b1-3)Gal
# How it was run: as §1
# Gal(b1-3)Gal(b1-4)GlcNAc = molecular target: Gal(b1-3)Gal(b1-4)GlcNAc
# How it was run: as §1
# Gal(b1-3)GalNAc = molecular target: Gal(b1-3)GalNAc
# How it was run: as §1
# [1] = molecular target: Gal(b1-3)GalNAc(a1-3)[Fuc(a1-2)]Gal(b1-4)Glc
# How it was run: as §1
# [2] = molecular target: Gal(b1-3)GalNAc(a1-3)[Fuc(a1-2)]Gal(b1-4)GlcNAc
# How it was run: as §1
# Gal(b1-3)GalNAc(b1-3)Gal = molecular target: Gal(b1-3)GalNAc(b1-3)Gal
# How it was run: as §1
# [3] = molecular target: Gal(b1-3)GalNAc(b1-3)Gal(a1-4)Gal(b1-4)Glc
# How it was run: as §1
# [4] = molecular target: Gal(b1-3)GalNAc(b1-4)Gal(b1-4)Glc
# How it was run: as §1
# [5] = molecular target: Gal(b1-3)GalNAc(b1-4)[Neu5Ac(a2-3)]Gal(b1-4)Glc
# How it was run: as §1
# Gal(b1-3)GlcNAc = molecular target: Gal(b1-3)GlcNAc
# How it was run: as §1
# [6] = molecular target: Gal(b1-3)GlcNAc(a1-3)Gal(b1-4)GlcNAc
# How it was run: as §1
# [7] = molecular target: Gal(b1-3)GlcNAc(a1-6)Gal(b1-4)GlcNAc
# How it was run: as §1
# Gal(b1-3)GlcNAc(b1-2)Man = molecular target: Gal(b1-3)GlcNAc(b1-2)Man
# How it was run: as §1
# [8] = molecular target: Gal(b1-3)GlcNAc(b1-2)Man(a1-3)[Gal(b1-3)GlcNAc(b1-2)Man(a1-6)]Man(b1-4)GlcNAc(b1-4)GlcNAc
# How it was run: as §1
# [9] = molecular target: Gal(b1-3)GlcNAc(b1-2)Man(a1-3)[Gal(b1-3)GlcNAc(b1-2)Man(a1-6)]Man(b1-4)GlcNAc(b1-4)[Fuc(a1-6)]GlcNAc
# How it was run: as §1
# [10] = molecular target: Gal(b1-3)GlcNAc(b1-2)Man(a1-3)[GlcNAc(b1-4)][Gal(b1-3)GlcNAc(b1-2)Man(a1-6)]Man(b1-4)GlcNAc(b1-4)GlcNAc
# How it was run: as §1
# [11] = molecular target: Gal(b1-3)GlcNAc(b1-2)[Gal(b1-3)GlcNAc(b1-6)]Man(a1-6)[Gal(b1-3)GlcNAc(b1-2)Man(a1-3)]Man(b1-4)GlcNAc(b1-4)GlcNAc
# How it was run: as §1
# [12] = molecular target: Gal(b1-3)GlcNAc(b1-3)Gal(b1-3)GlcNAc
# How it was run: as §1
# [13] = molecular target: Gal(b1-3)GlcNAc(b1-3)Gal(b1-4)Glc
# How it was run: as §1
# [14] = molecular target: Gal(b1-3)GlcNAc(b1-3)Gal(b1-4)GlcNAc
# How it was run: as §1
# [15] = molecular target: Gal(b1-3)GlcNAc(b1-3)Gal(b1-4)GlcNAc(b1-2)Man(a1-3)[Gal(b1-3)GlcNAc(b1-3)Gal(b1-4)GlcNAc(b1-2)Man(a1-6)]Man(b1-4)GlcNAc(b1-4)GlcNAc
# How it was run: as §1
# [16] = molecular target: Gal(b1-3)GlcNAc(b1-3)Gal(b1-4)GlcNAc(b1-2)[Gal(b1-3)GlcNAc(b1-3)Gal(b1-4)GlcNAc(b1-6)]Man(a1-6)[Gal(b1-3)GlcNAc(b1-3)Gal(b1-4)GlcNAc(b1-2)Man(a1-3)]Man(b1-4)GlcNAc(b1-4)[Fuc(a1-6)]GlcNAc
# How it was run: as §1
# [17] = molecular target: Gal(b1-3)GlcNAc(b1-3)Gal(b1-4)GlcNAc(b1-3)Gal(b1-4)GlcNAc(b1-2)[Gal(b1-3)GlcNAc(b1-3)Gal(b1-4)GlcNAc(b1-3)Gal(b1-4)GlcNAc(b1-6)]Man(a1-6)[Gal(b1-3)GlcNAc(b1-3)Gal(b1-4)GlcNAc(b1-3)Gal(b1-4)GlcNAc(b1-2)Man(a1-3)]Man(b1-4)GlcNAc(b1-4)[Fuc(a1-6)]GlcNAc
# How it was run: as §1
# [18] = molecular target: Gal(b1-3)GlcNAc(b1-3)Gal(b1-4)GlcNAc(b1-6)[Gal(b1-3)GlcNAc(b1-3)]Gal(b1-4)Glc
# How it was run: as §1
# [19] = molecular target: Gal(b1-3)GlcNAc(b1-3)Gal(b1-4)[Fuc(a1-3)]GlcNAc
# How it was run: as §1
# [20] = molecular target: Gal(b1-3)GlcNAc(b1-3)Gal(b1-4)[Fuc(a1-3)]GlcNAc(b1-6)[Gal(b1-3)GlcNAc(b1-3)]Gal(b1-4)Glc
# How it was run: as §1
# [21] = molecular target: Gal(b1-3)GlcNAc(b1-3)GalNAc
# How it was run: as §1
# [22] = molecular target: Gal(b1-3)GlcNAc(b1-6)Gal(b1-4)GlcNAc
# How it was run: as §1
# [23] = molecular target: Gal(b1-3)GlcNAc(b1-6)GalNAc
# How it was run: as §1
# [24] = molecular target: Gal(b1-3)GlcNAc(b1-6)[Gal(b1-3)]GalNAc
# How it was run: as §1
# Gal(b1-3)GlcNAc6S = molecular target: Gal(b1-3)GlcNAc6S
# How it was run: as §1
# [25] = molecular target: Gal(b1-3)[Fuc(a1-4)]GlcNAc
# How it was run: as §1
# [26] = molecular target: Gal(b1-3)[Fuc(a1-4)]GlcNAc(b1-2)Man
# How it was run: as §1
# [27] = molecular target: Gal(b1-3)[Fuc(a1-4)]GlcNAc(b1-2)Man(a1-3)[Gal(b1-3)[Fuc(a1-4)]GlcNAc(b1-2)Man(a1-6)]Man(b1-4)GlcNAc(b1-4)[Fuc(a1-6)]GlcNAc
# How it was run: as §1
# [28] = molecular target: Gal(b1-3)[Fuc(a1-4)]GlcNAc(b1-3)Gal(b1-3)[Fuc(a1-4)]GlcNAc
# How it was run: as §1
# [29] = molecular target: Gal(b1-3)[Fuc(a1-4)]GlcNAc(b1-3)Gal(b1-4)[Fuc(a1-3)]GlcNAc
# How it was run: as §1
# [30] = molecular target: Gal(b1-3)[Fuc(a1-4)]GlcNAc(b1-6)GalNAc
# How it was run: as §1
# [31] = molecular target: Gal(b1-3)[GlcNAc(b1-6)]GalNAc
# How it was run: as §1
# [32] = molecular target: Gal(b1-3)[Neu5Ac(a2-6)]GalNAc
# How it was run: as §1
# [33] = molecular target: Gal(b1-3)[Neu5Ac(a2-6)]GlcNAc(b1-4)Gal(b1-4)Glc
# How it was run: as §1
# [34] = molecular target: Gal(b1-3)[Neu5Ac(b2-6)]GalNAc
# How it was run: as §1
# Gal(b1-4)Gal = molecular target: Gal(b1-4)Gal
# How it was run: as §1
# [35] = molecular target: Gal(b1-4)GalNAc(a1-3)[Fuc(a1-2)]Gal(b1-4)GlcNAc
# How it was run: as §1
# [36] = molecular target: Gal(b1-4)GalNAc(b1-3)[Fuc(a1-2)]Gal(b1-4)GlcNAc
# How it was run: as §1
binder,measurement,setting,value
B1,glycan array binding signal (z-score),Gal(b1-2)Gal,-1.3
same,glycan array binding signal (z-score),Gal(b1-3)Gal,1.3
same,glycan array binding signal (z-score),Gal(b1-3)Gal(b1-4)GlcNAc,1.57
same,glycan array binding signal (z-score),Gal(b1-3)GalNAc,0.541
same,glycan array binding signal (z-score),[1],0.236
same,glycan array binding signal (z-score),[2],-0.185
same,glycan array binding signal (z-score),Gal(b1-3)GalNAc(b1-3)Gal,-0.234
same,glycan array binding signal (z-score),[3],0.177
same,glycan array binding signal (z-score),[4],0.695
same,glycan array binding signal (z-score),[5],0.896
same,glycan array binding signal (z-score),Gal(b1-3)GlcNAc,-0.593
same,glycan array binding signal (z-score),[6],-0.424
same,glycan array binding signal (z-score),[7],0.616
same,glycan array binding signal (z-score),Gal(b1-3)GlcNAc(b1-2)Man,1.47
same,glycan array binding signal (z-score),[8],0.14
same,glycan array binding signal (z-score),[9],-0.374
same,glycan array binding signal (z-score),[10],0.579
same,glycan array binding signal (z-score),[11],0.665
same,glycan array binding signal (z-score),[12],0.316
same,glycan array binding signal (z-score),[13],-0.764
same,glycan array binding signal (z-score),[14],-0.745
same,glycan array binding signal (z-score),[15],-0.467
same,glycan array binding signal (z-score),[16],1.25
same,glycan array binding signal (z-score),[17],1.37
same,glycan array binding signal (z-score),[18],0.751
same,glycan array binding signal (z-score),[19],-0.783
same,glycan array binding signal (z-score),[20],-1.27
same,glycan array binding signal (z-score),[21],-1.44
same,glycan array binding signal (z-score),[22],0.33
same,glycan array binding signal (z-score),[23],-0.46
same,glycan array binding signal (z-score),[24],-0.345
same,glycan array binding signal (z-score),Gal(b1-3)GlcNAc6S,-0.283
same,glycan array binding signal (z-score),[25],-0.703
same,glycan array binding signal (z-score),[26],1.21
same,glycan array binding signal (z-score),[27],1.5
same,glycan array binding signal (z-score),[28],-1.29
same,glycan array binding signal (z-score),[29],-0.203
same,glycan array binding signal (z-score),[30],2.24
same,glycan array binding signal (z-score),[31],0.129
same,glycan array binding signal (z-score),[32],-1
same,glycan array binding signal (z-score),[33],-1.36
same,glycan array binding signal (z-score),[34],-1.08
same,glycan array binding signal (z-score),Gal(b1-4)Gal,-0.475
same,glycan array binding signal (z-score),[35],-0.717
same,glycan array binding signal (z-score),[36],-0.171

# Reformatted: results already given
binder	measurement	setting	value
B1	glycan array binding signal (z-score)	[7]	0.616
same	glycan array binding signal (z-score)	Gal(b1-3)GlcNAc(b1-2)Man	1.47
